Data as given in PubChem BioAssay AID1159584 (Peter MacCallum Cancer Centre, 2016).
Here is one part, drawn at random, of about 18,000 reagents tested. Not all columns of the deposit are shown. The record does not give: the amount of reagent, the time to read-out.

Screen: 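Genes whose loss is lethal only together with E-cadherin loss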 (primary screen)
Cells: human MCF10A breast epithelial cells, parental and CDH1-null
Knock-down reagent: siRNA against human genes
Read-out: 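ATP luminescence (CellTiter-Glo) viability per line relative to mean mock wells over all plates, and the ratio of CDH1-null to parental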
Reading the numbers: CDH1-null / parental viability ratio: higher = CDH1-null cells survive relatively better than parental

{"target":"EIF2AK2","CDH1-null / parental viability ratio":1.15}
{"target":"ZNF496","CDH1-null / parental viability ratio":1.07}
{"target":"PIGH","CDH1-null / parental viability ratio":0.9}
{"target":"GPSM2","CDH1-null / parental viability ratio":0.83}
{"target":"PCGF5","CDH1-null / parental viability ratio":0.88}
{"target":"PSMB8","CDH1-null / parental viability ratio":1.09}
{"target":"PCDH7","CDH1-null / parental viability ratio":1.11}
{"target":"MCM3AP","CDH1-null / parental viability ratio":0.84}
{"target":"ZAN","CDH1-null / parental viability ratio":0.99}
{"target":"PLK2","CDH1-null / parental viability ratio":1.01}
{"target":"SOX21","CDH1-null / parental viability ratio":1.21}

Copied from the list:
For “CDH1-null / parental viability ratio”, PSMB8 has 1.09
Result of PIGH in “CDH1-null / parental viability ratio”: 0.9

The results go on:
{"target":"RAD21","CDH1-null / parental viability ratio":1.08}
{"target":"CFAP119","CDH1-null / parental viability ratio":0.89}
{"target":"ZSCAN5B","CDH1-null / parental viability ratio":0.99}
{"target":"GEMIN2","CDH1-null / parental viability ratio":1.12}
{"target":"LIN7A","CDH1-null / parental viability ratio":0.81}
{"target":"OR5B17","CDH1-null / parental viability ratio":1.34}
{"target":"DCT","CDH1-null / parental viability ratio":1.18}
{"target":"ZFP37","CDH1-null / parental viability ratio":0.83}
{"target":"MYO5A","CDH1-null / parental viability ratio":0.97}
{"target":"PLA2G6","CDH1-null / parental viability ratio":1.39}
{"target":"APLP1","CDH1-null / parental viability ratio":0.96}
{"target":"OXLD1","CDH1-null / parental viability ratio":0.74}
{"target":"LIX1L","CDH1-null / parental viability ratio":0.95}
